*1 amine or outer side, *2 acyl side, *3 side chain or, on linkers, in order; H or OH if unused. Where a SMILES comes first, the peptide text is derived from it. Bridges are numbered along the chain shown (N, C = ends). [ ]: non-standard residue; d: D form. X2 = C=C(N[*:2])c1nc(-c2nc(-c3nc(C(=O)OC)cs3)ccc2C(=O)[*:1])cs1; Nle = CCCC[C@H](N)C(=O)O; Dha = C=C(N)C(=O)O
System: LazBCDEF
Experiment: Enzymatic maturation with Laz enzymes, LC/MS analysis
Type: biochemical
Design: key: +++/++/+/– scale; +++/++/+/– scale; +++/++/+/– scale; +++/++/+/– scale
Settings: semiquantitative LC/MS of the in vitro translated precursor treated with Laz enzymes

Compound	maturation experimental
C=C1NC(=O)C(=CC)NC(=O)[C@H](Cc2c[nH]c3ccccc23)NC(=O)[C@H](Cc2c[nH]cn2)NC(=O)[C@H](Cc2c[nH]c3ccccc23)NC(=O)[C@H]([C@@H](C)O)NC(=O)[C@H]([C@@H](C)CC)NC(=O)[C@H](Cc2ccccc2)NC(=O)[C@H](CCC(N)=O)NC(=O)[C@H](CCCNC(=N)N)NC(=O)[C@H](CCCCN)NC(=O)[C@H](CCCC)NC(=O)[C@H](CO)NC(=O)[C@H](Cc2c[nH]c3ccccc23)NC(=O)c2ccc(-c3nc(C(=O)OC)cs3)nc2-c2csc1n2 [IR1] (HELM PEPTIDE1{W.S.[Nle].K.R.Q.F.I.T.W.H.W.[CC=C(N[*:1])C(=O)[*:2]]}|CHEM1{[C=C(N[*:2])c1nc(-c2nc(-c3nc(C(=O)OC)cs3)ccc2C(=O)[*:1])cs1]}$PEPTIDE1,CHEM1,1:R1-1:R1|PEPTIDE1,CHEM1,13:R2-1:R2$$$V2.0; bridges inferred)	+++
C=C1NC(=O)[C@H](Cc2c[nH]cn2)NC(=O)[C@H]([C@@H](C)CC)NC(=O)[C@H](C(C)C)NC(=O)[C@H](C(C)C)NC(=O)[C@H](CC(N)=O)NC(=O)[C@H](C(C)C)NC(=O)[C@H](CCCNC(=N)N)NC(=O)[C@H](CO)NC(=O)[C@H](CC(C)C)NC(=O)[C@H](CCC(=O)O)NC(=O)[C@H](CC(C)C)NC(=O)[C@H](CO)NC(=O)[C@H](Cc2c[nH]c3ccccc23)NC(=O)c2ccc(-c3nc(C(=O)OC)cs3)nc2-c2csc1n2 [TL20] (HELM PEPTIDE1{W.S.L.E.L.S.R.V.N.V.V.I.H}|CHEM1{[C=C(N[*:2])c1nc(-c2nc(-c3nc(C(=O)OC)cs3)ccc2C(=O)[*:1])cs1]}$PEPTIDE1,CHEM1,1:R1-1:R1|PEPTIDE1,CHEM1,13:R2-1:R2$$$V2.0; bridges inferred)	+++
C=C1NC(=O)[C@H]([C@@H](C)CC)NC(=O)[C@H](CO)NC(=O)[C@H](CC(=O)O)NC(=O)[C@H](CCCNC(=N)N)NC(=O)[C@H](C)NC(=O)[C@H](CCCC)NC(=O)C(=C)NC(=O)CNC(=O)[C@@H]2CCCN2C(=O)[C@H](Cc2c[nH]c3ccccc23)NC(=O)c2ccc(-c3nc(C(=O)OC)cs3)nc2-c2csc(n2)C(=C)NC1=O [TL18] (WPG[Dha][Nle]ARDSI[Dha]; linker N-C via X2)	+++
C=C1NC(=O)[C@H](CCCC(N)=O)NC(=O)[C@H](Cc2ccc(O)cc2)NC(=O)[C@H](CC(C)C)NC(=O)[C@H](CCCC)NC(=O)[C@H](CC(N)=O)NC(=O)[C@H]([C@@H](C)O)NC(=O)[C@H](CCC(N)=O)NC(=O)[C@H](CCCCN)NC(=O)[C@H]([C@@H](C)CC)NC(=O)[C@H](CC(C)C)NC(=O)[C@H](CC(C)C)NC(=O)[C@H](C)NC(=O)[C@H](Cc2c[nH]c3ccccc23)NC(=O)c2ccc(-c3nc(C(=O)OC)cs3)nc2-c2csc1n2 [TL17] (HELM PEPTIDE1{W.A.L.L.I.K.Q.T.N.[Nle].L.Y.[O=C([C@H](CCCC(=O)[*:3])N[*:1])[*:2]]}|PEPTIDE2{[am]}|CHEM1{[C=C(N[*:2])c1nc(-c2nc(-c3nc(C(=O)OC)cs3)ccc2C(=O)[*:1])cs1]}$PEPTIDE1,PEPTIDE2,13:R3-1:R1|PEPTIDE1,CHEM1,1:R1-1:R1|PEPTIDE1,CHEM1,13:R2-1:R2$$$V2.0; bridges inferred)	+++
C=C1NC(=O)[C@H]([C@@H](C)CC)NC(=O)[C@H](C)NC(=O)[C@H](CC(C)C)NC(=O)[C@H](CCCCN)NC(=O)[C@H](CO)NC(=O)[C@H](CCC(N)=O)NC(=O)[C@H](CC(C)C)NC(=O)[C@H](CCCNC(=N)N)NC(=O)[C@H](Cc2ccccc2)NC(=O)[C@H](CC(C)C)NC(=O)[C@H](CCCC)NC(=O)[C@H]([C@@H](C)O)NC(=O)[C@H](Cc2c[nH]c3ccccc23)NC(=O)c2ccc(-c3nc(C(=O)OC)cs3)nc2-c2csc1n2 [TL6] (HELM PEPTIDE1{W.T.[Nle].L.F.R.L.Q.S.K.L.A.I}|CHEM1{[C=C(N[*:2])c1nc(-c2nc(-c3nc(C(=O)OC)cs3)ccc2C(=O)[*:1])cs1]}$PEPTIDE1,CHEM1,1:R1-1:R1|PEPTIDE1,CHEM1,13:R2-1:R2$$$V2.0)	+++
C=C1NC(=O)[C@H](Cc2c[nH]cn2)NC(=O)[C@@H]2CCCN2C(=O)[C@H](CCCNC(=N)N)NC(=O)[C@H](CCCNC(=N)N)NC(=O)[C@H](CCCNC(=N)N)NC(=O)[C@H](C)NC(=O)[C@H](Cc2c[nH]c3ccccc23)NC(=O)[C@H](Cc2ccc(O)cc2)NC(=O)[C@H](CC(C)C)NC(=O)[C@H](CO)NC(=O)[C@H](CCSC)NC(=O)[C@H](C)NC(=O)[C@H](Cc2c[nH]c3ccccc23)NC(=O)c2ccc(-c3nc(C(=O)OC)cs3)nc2-c2csc1n2 [IR11] (HELM PEPTIDE1{W.A.M.S.L.Y.W.A.R.R.R.P.H}|CHEM1{[C=C(N[*:2])c1nc(-c2nc(-c3nc(C(=O)OC)cs3)ccc2C(=O)[*:1])cs1]}$PEPTIDE1,CHEM1,1:R1-1:R1|PEPTIDE1,CHEM1,13:R2-1:R2$$$V2.0)	+++
C=C1NC(=O)[C@H](CCCCN)NC(=O)[C@H](Cc2c[nH]c3ccccc23)NC(=O)[C@H]([C@@H](C)O)NC(=O)[C@H](CCCNC(=N)N)NC(=O)[C@H](CCCNC(=N)N)NC(=O)[C@H](CCCCN)NC(=O)[C@H](Cc2c[nH]c3ccccc23)NC(=O)[C@H](CCCC(N)=O)NC(=O)[C@H](CC(C)C)NC(=O)[C@H]([C@@H](C)O)NC(=O)[C@H](Cc2c[nH]c3ccccc23)NC(=O)c2ccc(-c3nc(C(=O)OC)cs3)nc2-c2csc1n2 [IR8] (HELM PEPTIDE1{W.T.L.[O=C([C@H](CCCC(=O)[*:3])N[*:1])[*:2]].W.K.R.R.T.W.K}|PEPTIDE2{[am]}|CHEM1{[C=C(N[*:2])c1nc(-c2nc(-c3nc(C(=O)OC)cs3)ccc2C(=O)[*:1])cs1]}$PEPTIDE1,PEPTIDE2,4:R3-1:R1|PEPTIDE1,CHEM1,1:R1-1:R1|PEPTIDE1,CHEM1,11:R2-1:R2$$$V2.0; bridges inferred)	+++
C=C1NC(=O)[C@H](Cc2ccccc2)NC(=O)[C@H](C)NC(=O)[C@H](C(C)C)NC(=O)[C@H](CCCCN)NC(=O)[C@H](CCCNC(=N)N)NC(=O)[C@H](CCC(N)=O)NC(=O)[C@H](CC(C)C)NC(=O)[C@H](Cc2c[nH]c3ccccc23)NC(=O)[C@H](Cc2ccccc2)NC(=O)[C@H](CO)NC(=O)[C@H]([C@@H](C)CC)NC(=O)[C@H](CCCC(N)=O)NC(=O)[C@H](Cc2c[nH]c3ccccc23)NC(=O)c2ccc(-c3nc(C(=O)OC)cs3)nc2-c2csc1n2 [TL3] (HELM PEPTIDE1{W.[O=C([C@H](CCCC(=O)[*:3])N[*:1])[*:2]].I.S.F.W.L.Q.R.K.V.A.F}|PEPTIDE2{[am]}|CHEM1{[C=C(N[*:2])c1nc(-c2nc(-c3nc(C(=O)OC)cs3)ccc2C(=O)[*:1])cs1]}$PEPTIDE1,PEPTIDE2,2:R3-1:R1|PEPTIDE1,CHEM1,1:R1-1:R1|PEPTIDE1,CHEM1,13:R2-1:R2$$$V2.0; bridges inferred)	+++
C=C1NC(=O)[C@H](CCCCN)NC(=O)[C@H]([C@@H](C)CC)NC(=O)[C@H](CCCC)NC(=O)[C@H](C(C)C)NC(=O)[C@H](CCCNC(=N)N)NC(=O)CNC(=O)[C@H]([C@@H](C)CC)NC(=O)[C@H](Cc2c[nH]c3ccccc23)NC(=O)c2ccc(-c3nc(C(=O)OC)cs3)nc2-c2csc(n2)C(=C)NC(=O)c2coc1n2 [TL19] (HELM PEPTIDE1{W.I.G.R.V.[Nle].I.K.[C=C(N[*:1])c1nc(C(=O)[*:2])co1]}|CHEM1{[C=C(N[*:2])c1nc(-c2nc(-c3nc(C(=O)OC)cs3)ccc2C(=O)[*:1])cs1]}$PEPTIDE1,CHEM1,1:R1-1:R1|PEPTIDE1,CHEM1,9:R2-1:R2$$$V2.0; bridges inferred)	+++
C=C1NC(=O)[C@H](Cc2ccccc2)NC(=O)[C@H](C)NC(=O)[C@H]([C@@H](C)CC)NC(=O)[C@H](CCCCN)NC(=O)[C@H](CC(N)=O)NC(=O)[C@H](CCC(N)=O)NC(=O)[C@H](CC(N)=O)NC(=O)[C@H]([C@@H](C)O)NC(=O)[C@H](Cc2ccccc2)NC(=O)[C@H](CCCNC(=N)N)NC(=O)[C@H]([C@@H](C)CC)NC(=O)[C@H]([C@@H](C)O)NC(=O)[C@H](Cc2c[nH]c3ccccc23)NC(=O)c2ccc(-c3nc(C(=O)OC)cs3)nc2-c2csc1n2 [TL4] (HELM PEPTIDE1{W.T.I.R.F.T.N.Q.N.K.I.A.F}|CHEM1{[C=C(N[*:2])c1nc(-c2nc(-c3nc(C(=O)OC)cs3)ccc2C(=O)[*:1])cs1]}$PEPTIDE1,CHEM1,1:R1-1:R1|PEPTIDE1,CHEM1,13:R2-1:R2$$$V2.0; bridges inferred)	+++
C=C1NC(=O)[C@H](Cc2c[nH]c3ccccc23)NC(=O)CNC(=O)[C@H](C(C)C)NC(=O)[C@H](CC(N)=O)NC(=O)CNC(=O)CNC(=O)[C@H](Cc2ccc(O)cc2)NC(=O)[C@@H]2CCCN2C(=O)[C@H](CC(N)=O)NC(=O)[C@H]([C@@H](C)O)NC(=O)[C@H](Cc2c[nH]c3ccccc23)NC(=O)c2ccc(-c3nc(C(=O)OC)cs3)nc2-c2csc1n2 [TL1] (HELM PEPTIDE1{W.T.N.P.Y.G.G.N.V.G.W}|CHEM1{[C=C(N[*:2])c1nc(-c2nc(-c3nc(C(=O)OC)cs3)ccc2C(=O)[*:1])cs1]}$PEPTIDE1,CHEM1,1:R1-1:R1|PEPTIDE1,CHEM1,11:R2-1:R2$$$V2.0; bridges inferred)	+++
C=C1NC(=O)[C@H](Cc2ccc(O)cc2)NC(=O)[C@H](C)NC(=O)[C@H](C(C)C)NC(=O)[C@H](CCCCN)NC(=O)CNC(=O)[C@H](CC(C)C)NC(=O)[C@H](CCCNC(=N)N)NC(=O)[C@@H]2CCCN2C(=O)[C@H](Cc2ccccc2)NC(=O)[C@H](CCCC)NC(=O)[C@H](CCCC)NC(=O)[C@H]([C@@H](C)O)NC(=O)[C@H](Cc2c[nH]c3ccccc23)NC(=O)c2ccc(-c3nc(C(=O)OC)cs3)nc2-c2csc1n2 [TL9] (HELM PEPTIDE1{W.T.[Nle].[Nle].F.P.R.L.G.K.V.A.Y}|CHEM1{[C=C(N[*:2])c1nc(-c2nc(-c3nc(C(=O)OC)cs3)ccc2C(=O)[*:1])cs1]}$PEPTIDE1,CHEM1,1:R1-1:R1|PEPTIDE1,CHEM1,13:R2-1:R2$$$V2.0)	+++
C=C1NC(=O)[C@H](CCCCN)NC(=O)[C@H](Cc2ccc(O)cc2)NC(=O)[C@H]([C@@H](C)CC)NC(=O)[C@H](CCCNC(=N)N)NC(=O)[C@H](CCCNC(=N)N)NC(=O)[C@H](CCCCN)NC(=O)[C@H](Cc2ccccc2)NC(=O)[C@H](CC(C)C)NC(=O)[C@H](CCSC)NC(=O)[C@H](CO)NC(=O)[C@H](Cc2c[nH]c3ccccc23)NC(=O)c2ccc(-c3nc(C(=O)OC)cs3)nc2-c2csc1n2 [IR5] (HELM PEPTIDE1{W.S.M.L.F.K.R.R.I.Y.K}|CHEM1{[C=C(N[*:2])c1nc(-c2nc(-c3nc(C(=O)OC)cs3)ccc2C(=O)[*:1])cs1]}$PEPTIDE1,CHEM1,1:R1-1:R1|PEPTIDE1,CHEM1,11:R2-1:R2$$$V2.0; bridges inferred)	+++

From paper PMC10683472, “Deep Learning-Driven Library Design for the De Novo Discovery of Bioactive Thiopeptides” (ACS Central Science, 2023)
